This is one part of the list. Most entries show no effect beyond the scatter of the controls.
compound: Cc1nc(Nc2ncc(C(=O)Nc3c(C)cccc3Cl)s2)cc(N2CCN(CCO)CC2)n1 [dasatinib]; test: log2 fold change of tryptic peptide abundance, ligand vs vehicle (limited proteolysis) (log2 ratio); higher = more trypsin-susceptible (destabilized); settings: ligand concentration: 5 uM; sample: K562 cleared lysate

The chains behind the UniProt entries cited, without tags or fusion partners. Where a name states a change or a piece, a line headed by the entry shows the natural chain unless it says otherwise.
UniProt O94979: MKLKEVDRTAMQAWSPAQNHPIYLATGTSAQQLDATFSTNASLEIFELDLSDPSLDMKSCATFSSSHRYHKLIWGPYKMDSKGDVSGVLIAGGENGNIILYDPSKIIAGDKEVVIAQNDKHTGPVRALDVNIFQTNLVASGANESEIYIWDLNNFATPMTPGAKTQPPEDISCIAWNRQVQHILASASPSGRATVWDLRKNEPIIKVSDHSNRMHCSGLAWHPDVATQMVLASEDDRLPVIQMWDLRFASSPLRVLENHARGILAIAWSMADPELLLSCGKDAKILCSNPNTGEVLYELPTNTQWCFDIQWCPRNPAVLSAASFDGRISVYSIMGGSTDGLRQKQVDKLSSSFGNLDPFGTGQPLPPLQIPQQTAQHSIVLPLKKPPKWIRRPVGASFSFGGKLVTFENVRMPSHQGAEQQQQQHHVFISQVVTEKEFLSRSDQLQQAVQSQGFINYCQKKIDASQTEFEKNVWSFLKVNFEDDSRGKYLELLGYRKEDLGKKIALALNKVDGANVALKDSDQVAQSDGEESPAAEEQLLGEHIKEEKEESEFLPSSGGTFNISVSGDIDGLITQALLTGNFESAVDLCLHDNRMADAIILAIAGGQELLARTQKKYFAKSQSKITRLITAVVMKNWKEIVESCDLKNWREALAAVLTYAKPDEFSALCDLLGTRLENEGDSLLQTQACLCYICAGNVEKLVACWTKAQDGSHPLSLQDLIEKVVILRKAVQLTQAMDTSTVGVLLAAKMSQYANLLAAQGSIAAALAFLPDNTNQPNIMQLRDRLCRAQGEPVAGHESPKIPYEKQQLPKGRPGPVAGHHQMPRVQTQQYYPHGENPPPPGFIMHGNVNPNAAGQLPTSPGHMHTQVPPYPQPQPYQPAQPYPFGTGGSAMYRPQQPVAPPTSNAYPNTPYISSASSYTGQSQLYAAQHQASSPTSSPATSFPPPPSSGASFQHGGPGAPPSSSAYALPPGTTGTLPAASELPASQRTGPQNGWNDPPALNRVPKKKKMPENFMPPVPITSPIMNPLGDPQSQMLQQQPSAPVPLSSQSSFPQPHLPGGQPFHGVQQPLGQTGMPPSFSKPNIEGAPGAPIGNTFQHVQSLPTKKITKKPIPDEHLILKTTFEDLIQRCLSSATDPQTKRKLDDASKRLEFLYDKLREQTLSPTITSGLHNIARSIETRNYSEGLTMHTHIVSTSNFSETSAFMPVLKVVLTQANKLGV
UniProt O94983: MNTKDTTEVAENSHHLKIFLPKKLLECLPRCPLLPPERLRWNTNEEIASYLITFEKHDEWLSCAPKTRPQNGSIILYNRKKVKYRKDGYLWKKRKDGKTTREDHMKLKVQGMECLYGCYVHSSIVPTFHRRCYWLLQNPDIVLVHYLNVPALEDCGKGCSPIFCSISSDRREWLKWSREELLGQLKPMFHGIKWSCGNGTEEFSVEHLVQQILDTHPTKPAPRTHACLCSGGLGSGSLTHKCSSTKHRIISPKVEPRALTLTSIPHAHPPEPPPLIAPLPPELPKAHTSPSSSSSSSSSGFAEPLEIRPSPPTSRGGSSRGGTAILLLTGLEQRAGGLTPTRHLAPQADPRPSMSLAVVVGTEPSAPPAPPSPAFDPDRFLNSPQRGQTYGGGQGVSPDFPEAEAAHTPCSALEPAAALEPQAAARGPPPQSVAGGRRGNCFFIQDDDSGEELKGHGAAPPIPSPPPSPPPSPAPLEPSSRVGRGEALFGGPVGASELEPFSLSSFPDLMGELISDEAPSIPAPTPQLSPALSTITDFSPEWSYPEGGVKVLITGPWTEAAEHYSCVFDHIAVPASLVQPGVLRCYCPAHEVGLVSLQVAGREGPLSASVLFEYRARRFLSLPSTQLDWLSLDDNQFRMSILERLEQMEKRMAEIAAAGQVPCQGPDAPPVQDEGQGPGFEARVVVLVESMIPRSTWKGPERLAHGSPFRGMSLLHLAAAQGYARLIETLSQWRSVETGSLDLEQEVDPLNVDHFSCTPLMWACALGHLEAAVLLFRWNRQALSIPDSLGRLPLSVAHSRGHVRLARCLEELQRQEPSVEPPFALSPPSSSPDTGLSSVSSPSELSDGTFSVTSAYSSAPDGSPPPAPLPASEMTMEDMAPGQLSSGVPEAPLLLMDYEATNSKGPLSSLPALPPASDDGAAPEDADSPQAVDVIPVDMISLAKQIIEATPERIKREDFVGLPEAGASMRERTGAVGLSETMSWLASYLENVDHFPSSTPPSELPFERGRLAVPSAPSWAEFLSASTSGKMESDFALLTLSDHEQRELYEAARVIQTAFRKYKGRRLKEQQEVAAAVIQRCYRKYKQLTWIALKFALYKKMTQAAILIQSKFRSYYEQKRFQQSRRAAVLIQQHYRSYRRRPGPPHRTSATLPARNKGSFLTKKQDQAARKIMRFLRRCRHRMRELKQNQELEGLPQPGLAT
UniProt O75575: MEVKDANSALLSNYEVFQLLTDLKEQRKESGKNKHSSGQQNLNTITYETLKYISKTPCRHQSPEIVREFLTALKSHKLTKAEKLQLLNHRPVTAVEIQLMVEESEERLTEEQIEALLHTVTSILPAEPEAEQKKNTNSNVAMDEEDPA
UniProt O95292, whole entry: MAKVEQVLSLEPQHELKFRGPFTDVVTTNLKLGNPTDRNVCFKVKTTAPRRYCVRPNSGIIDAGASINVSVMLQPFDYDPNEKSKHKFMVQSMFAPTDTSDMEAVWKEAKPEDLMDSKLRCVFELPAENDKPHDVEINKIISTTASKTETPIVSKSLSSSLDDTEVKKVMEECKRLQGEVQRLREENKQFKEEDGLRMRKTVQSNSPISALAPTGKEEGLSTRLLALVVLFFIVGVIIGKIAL
UniProt O95881: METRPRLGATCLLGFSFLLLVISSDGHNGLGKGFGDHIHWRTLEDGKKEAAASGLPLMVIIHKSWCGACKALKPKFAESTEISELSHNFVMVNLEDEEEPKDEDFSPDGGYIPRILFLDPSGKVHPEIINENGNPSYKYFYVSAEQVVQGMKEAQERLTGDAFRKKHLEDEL
UniProt O76031, whole entry: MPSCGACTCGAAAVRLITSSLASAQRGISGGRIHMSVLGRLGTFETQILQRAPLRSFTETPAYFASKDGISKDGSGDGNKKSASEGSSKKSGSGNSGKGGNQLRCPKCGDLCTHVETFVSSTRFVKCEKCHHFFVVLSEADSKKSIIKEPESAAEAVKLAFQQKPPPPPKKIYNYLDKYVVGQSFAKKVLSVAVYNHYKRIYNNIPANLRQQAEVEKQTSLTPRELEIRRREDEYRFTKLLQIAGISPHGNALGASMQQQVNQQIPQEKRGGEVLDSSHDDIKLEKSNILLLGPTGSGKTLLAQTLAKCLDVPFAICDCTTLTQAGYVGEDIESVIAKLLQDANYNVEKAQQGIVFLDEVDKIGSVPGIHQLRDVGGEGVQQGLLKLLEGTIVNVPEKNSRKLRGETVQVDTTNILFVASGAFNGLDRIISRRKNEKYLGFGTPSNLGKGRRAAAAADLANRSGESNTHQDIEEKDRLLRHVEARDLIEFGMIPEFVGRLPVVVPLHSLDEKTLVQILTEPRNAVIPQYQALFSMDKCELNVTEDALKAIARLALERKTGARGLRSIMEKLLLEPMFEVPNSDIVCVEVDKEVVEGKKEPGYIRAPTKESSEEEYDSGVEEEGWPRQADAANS
UniProt O95521: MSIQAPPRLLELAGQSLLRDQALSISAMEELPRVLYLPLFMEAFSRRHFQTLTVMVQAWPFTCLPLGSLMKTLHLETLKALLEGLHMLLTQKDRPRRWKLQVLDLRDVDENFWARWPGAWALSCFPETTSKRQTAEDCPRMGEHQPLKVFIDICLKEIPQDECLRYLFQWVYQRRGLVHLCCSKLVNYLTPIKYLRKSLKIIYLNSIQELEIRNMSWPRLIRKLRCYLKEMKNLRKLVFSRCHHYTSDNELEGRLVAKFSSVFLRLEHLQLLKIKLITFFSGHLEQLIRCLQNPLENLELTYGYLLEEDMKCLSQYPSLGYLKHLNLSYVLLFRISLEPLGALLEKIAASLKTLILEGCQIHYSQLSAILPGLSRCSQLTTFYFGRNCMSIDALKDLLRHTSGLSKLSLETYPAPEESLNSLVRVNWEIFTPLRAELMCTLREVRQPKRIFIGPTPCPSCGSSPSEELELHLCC
UniProt O75915: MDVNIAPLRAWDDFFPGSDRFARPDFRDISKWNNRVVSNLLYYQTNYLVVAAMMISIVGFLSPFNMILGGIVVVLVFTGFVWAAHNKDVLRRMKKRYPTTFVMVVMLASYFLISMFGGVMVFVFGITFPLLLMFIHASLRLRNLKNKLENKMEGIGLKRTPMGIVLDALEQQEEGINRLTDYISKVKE
UniProt O95271: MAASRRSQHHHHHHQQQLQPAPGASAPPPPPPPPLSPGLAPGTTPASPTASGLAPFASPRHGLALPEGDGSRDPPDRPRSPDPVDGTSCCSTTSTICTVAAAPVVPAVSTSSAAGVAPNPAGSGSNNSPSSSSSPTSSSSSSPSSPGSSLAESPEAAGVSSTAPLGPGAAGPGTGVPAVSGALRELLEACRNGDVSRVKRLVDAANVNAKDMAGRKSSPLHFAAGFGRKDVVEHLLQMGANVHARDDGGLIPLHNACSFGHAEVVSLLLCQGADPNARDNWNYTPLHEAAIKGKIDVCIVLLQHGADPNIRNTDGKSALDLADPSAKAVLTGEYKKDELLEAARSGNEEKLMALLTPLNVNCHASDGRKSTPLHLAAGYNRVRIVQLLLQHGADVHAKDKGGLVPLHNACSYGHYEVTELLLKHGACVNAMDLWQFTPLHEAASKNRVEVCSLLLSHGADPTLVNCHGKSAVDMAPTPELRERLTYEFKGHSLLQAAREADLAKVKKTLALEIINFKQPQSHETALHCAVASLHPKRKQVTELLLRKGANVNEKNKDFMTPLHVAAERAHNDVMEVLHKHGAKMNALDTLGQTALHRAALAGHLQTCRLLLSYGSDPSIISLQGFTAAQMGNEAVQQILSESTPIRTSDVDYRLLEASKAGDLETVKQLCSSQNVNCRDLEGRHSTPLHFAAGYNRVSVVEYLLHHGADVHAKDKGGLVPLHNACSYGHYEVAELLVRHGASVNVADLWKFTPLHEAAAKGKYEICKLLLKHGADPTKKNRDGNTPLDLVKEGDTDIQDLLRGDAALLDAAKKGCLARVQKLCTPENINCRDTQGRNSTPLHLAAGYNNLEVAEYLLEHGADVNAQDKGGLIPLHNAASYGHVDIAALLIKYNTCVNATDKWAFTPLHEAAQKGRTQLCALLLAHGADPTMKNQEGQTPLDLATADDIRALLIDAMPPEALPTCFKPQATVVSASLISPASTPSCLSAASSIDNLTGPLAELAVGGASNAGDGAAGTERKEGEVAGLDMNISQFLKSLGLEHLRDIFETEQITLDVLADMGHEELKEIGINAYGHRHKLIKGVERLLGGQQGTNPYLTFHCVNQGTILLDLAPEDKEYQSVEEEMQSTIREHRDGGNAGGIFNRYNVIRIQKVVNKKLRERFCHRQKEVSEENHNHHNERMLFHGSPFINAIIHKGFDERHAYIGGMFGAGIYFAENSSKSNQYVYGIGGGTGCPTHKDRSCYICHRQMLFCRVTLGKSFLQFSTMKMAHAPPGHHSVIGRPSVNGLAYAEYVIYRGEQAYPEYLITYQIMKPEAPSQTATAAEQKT
UniProt O75911: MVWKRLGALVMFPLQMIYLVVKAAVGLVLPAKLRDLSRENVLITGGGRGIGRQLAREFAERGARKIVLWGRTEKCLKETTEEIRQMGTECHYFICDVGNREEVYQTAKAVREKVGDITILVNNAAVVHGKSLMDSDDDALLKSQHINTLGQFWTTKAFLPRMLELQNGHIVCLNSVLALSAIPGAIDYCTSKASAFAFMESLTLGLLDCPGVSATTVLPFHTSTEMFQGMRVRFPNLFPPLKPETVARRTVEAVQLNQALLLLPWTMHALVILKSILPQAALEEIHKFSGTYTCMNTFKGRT

| Target | log2 fold change |
| --- | --- |
| SEC31A (peptide sequence: TTFEDLIQR, peptide start residue: 1121) (UniProt O94979) | 0.121 |
| UniProt O94983 (peptide sequence: RAAVLIQQHYR, peptide start residue: 1126) | -0.718 |
| CRCP (peptide sequence: HSSGQQNLNTITYETLK, peptide start residue: 35) (UniProt O75575) | 0.0811 |
| VAPB (peptide sequence: VMEECKR, peptide start residue: 169) (UniProt O95292) | 0.568 |
| TXNDC12 (peptide sequence: KKHLEDEL, peptide start residue: 165) (UniProt O95881) | -0.0936 |
| CLPX (peptide sequence: FVKCEKCHHFFVVLSEADSK, peptide start residue: 124) (UniProt O76031) | -0.635 |
| UniProt O95521 (peptide sequence: WKLQVLDLR, peptide start residue: 117) | -0.166 |
| ARL6IP5 (peptide sequence: MEGIGLKR, peptide start residue: 152) (UniProt O75915) | -0.545 |
| TNKS (peptide sequence: HGLALPEGDGSRDPPDRPR, peptide start residue: 61) (UniProt O95271) | 0.179 |
| DHRS3 (peptide sequence: SLMDSDDDALLK, peptide start residue: 131) (UniProt O75911) | -0.345 |

Reference: the supplement of paper PMC12819154, “High-throughput peptide-centric local stability assay extends protein–ligand identification to membrane proteins, tissues and bacteria” (Nature Structural & Molecular Biology, 2025)
